Results are given in words; binding and its absence hold for the method and conditions named. In cells and extracts the contact can be indirect. Binding calls can cover weak binding; strength is not graded here.
B1: 14-3-3 protein gamma (YWHAG) (protein, UniProt P61981 1-247)
chain: MVDREQLVQKARLAEQAERYDDMAAAMKNVTELNEPLSNEERNLLSVAYKNVVGARRSSWRVISSIEQKTSADGNEKKIEMVRAYREKIEKELEAVCQDVLSLLDNYLIKNCSETQYESKVFYLKMKGDYYRYLAEVATGEKRATVVESSEKAYSEAHEISKEHMQPTHPIRLGLALNYSVFYYEIQNAPEQACHLAKTAFDDAIAELDTLNEDSYKDSTLIMQLLRDNLTLWTSDQQDDDGGEGNN
B2: 14-3-3 protein YWHAH (protein, UniProt Q04917 1-246)
chain: MGDREQLLQRARLAEQAERYDDMASAMKAVTELNEPLSNEDRNLLSVAYKNVVGARRSSWRVISSIEQKTMADGNEKKLEKVKAYREKIEKELETVCNDVLSLLDKFLIKNCNDFQYESKVFYLKMKGDYYRYLAEVASGEKKNSVVEASEAAYKEAFEISKEQMQPTHPIRLGLALNFSVFYYEIQNAPEQACLLAKQAFDDAIAELDTLNEDSYKDSTLIMQLLRDNLTLWTSDQQDEEAGEGN
B3: 14-3-3 protein YWHAQ (protein, UniProt P27348 1-245)
chain: MEKTELIQKAKLAEQAERYDDMATCMKAVTEQGAELSNEERNLLSVAYKNVVGGRRSAWRVISSIEQKTDTSDKKLQLIKDYREKVESELRSICTTVLELLDKYLIANATNPESKVFYLKMKGDYFRYLAEVACGDDRKQTIDNSQGAYQEAFDISKKEMQPTHPIRLGLALNFSVFYYEILNNPELACTLAKTAFDEAIAELDTLNEDSYKDSTLIMQLLRDNLTLWTSDSAGEECDAAEGAEN

Columns and labels:
[1] = target: UL32 (also known as pp150) (human cytomegalovirus (HCMV), strain TB40-BAC4); assay: cross-linking; XL-MS: intact extracellular HCMV TB40-BAC4 particles in PBS crosslinked with DSSO (2.5 mM twice, 30 min, 25 °C), quenched, virions purified on glycerol-tartrate gradients, LC-MS of crosslinked peptides, 1% FDR, n = 2 biological replicates
[2] = target: UL99 (also known as pp28) (human cytomegalovirus (HCMV), strain TB40-BAC4); assay: as above

Binder	binding [1]	binding [2]
B1	binds	binds
B2	binds	binds
B3	binds	binds

Source: publication PMC10465357
